Results are given in words; binding and its absence hold for the method and conditions named. Binding seen in cells or lysates may run through a third protein. Some results given as binding are weak or reduced against the parent protein; the word gives no strength.
Legend:
[1] = biological target: T1, TGR5 (endogenous, HEK293 cells) (UniProt Q8TDU6); assay: endogenous coimmunoprecipitation with TGR5 antibodies, SeV-infected HEK293 cells, immunoblot
T1 sequence (looked up): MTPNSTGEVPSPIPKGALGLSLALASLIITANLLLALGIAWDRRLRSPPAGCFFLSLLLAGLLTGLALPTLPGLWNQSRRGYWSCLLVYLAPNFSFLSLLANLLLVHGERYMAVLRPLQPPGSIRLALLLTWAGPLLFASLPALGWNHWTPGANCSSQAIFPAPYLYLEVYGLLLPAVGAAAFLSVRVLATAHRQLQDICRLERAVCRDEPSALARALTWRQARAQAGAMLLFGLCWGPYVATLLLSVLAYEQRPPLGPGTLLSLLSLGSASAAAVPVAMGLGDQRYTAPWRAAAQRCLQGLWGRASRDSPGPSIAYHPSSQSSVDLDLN

Protein sequences, listed by entry. Tags and fused reporters are not part of them.
UniProt P49407: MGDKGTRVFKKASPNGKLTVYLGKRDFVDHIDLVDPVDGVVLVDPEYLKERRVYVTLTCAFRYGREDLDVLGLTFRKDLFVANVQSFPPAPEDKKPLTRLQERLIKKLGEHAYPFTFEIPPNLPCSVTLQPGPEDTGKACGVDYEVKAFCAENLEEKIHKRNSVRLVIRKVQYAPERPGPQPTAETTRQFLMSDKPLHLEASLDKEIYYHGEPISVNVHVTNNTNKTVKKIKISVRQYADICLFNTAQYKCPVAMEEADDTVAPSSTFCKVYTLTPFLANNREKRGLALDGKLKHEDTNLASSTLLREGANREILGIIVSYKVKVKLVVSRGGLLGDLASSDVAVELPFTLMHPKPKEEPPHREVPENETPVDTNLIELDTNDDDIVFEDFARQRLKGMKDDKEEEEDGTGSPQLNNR
UniProt P43250: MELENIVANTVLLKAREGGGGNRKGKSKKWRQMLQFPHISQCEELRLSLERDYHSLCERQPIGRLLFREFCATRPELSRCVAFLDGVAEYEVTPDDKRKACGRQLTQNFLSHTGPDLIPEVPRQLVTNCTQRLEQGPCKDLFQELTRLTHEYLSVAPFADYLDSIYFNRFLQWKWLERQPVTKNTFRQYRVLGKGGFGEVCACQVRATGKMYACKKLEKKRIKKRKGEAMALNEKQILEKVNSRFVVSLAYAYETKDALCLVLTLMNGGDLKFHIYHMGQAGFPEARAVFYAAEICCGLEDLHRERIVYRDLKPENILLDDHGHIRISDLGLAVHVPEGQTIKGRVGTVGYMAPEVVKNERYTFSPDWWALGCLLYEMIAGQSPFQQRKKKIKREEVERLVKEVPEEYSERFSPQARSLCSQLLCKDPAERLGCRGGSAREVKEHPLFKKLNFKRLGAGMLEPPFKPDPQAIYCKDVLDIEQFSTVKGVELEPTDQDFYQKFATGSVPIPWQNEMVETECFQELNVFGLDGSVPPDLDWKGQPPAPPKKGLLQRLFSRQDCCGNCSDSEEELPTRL

[2] = biological target: T1, TGR5 (endogenous, HEK293 cells); assay: endogenous coimmunoprecipitation after viral infection

| Substance | binding [1] | binding [2] |
| --- | --- | --- |
| β-arrestin1 (endogenous, HEK293 cells) (from UniProt P49407 1-418) | binds | binds |
| GRK6 (endogenous, HEK293 cells) (from UniProt P43250 1-576) (enzyme) | binds | binds |

— patent publication US20210346401A1, “REGULATOR OF TGR5 SIGNALING AS IMMUNOMODULATORY AGENT” (YICHANG HUMANWELL PHARMACEUTICAL CO., LTD, priority 2018, published 2021)
